{"source": "paper PMC4895178", "about": "(Scientific Reports, 2016)", "note": "The same purity stands for every peptide and may come from a single statement.", "data": [{"experiment": "peptide synthesis", "details": "whole synthesis, TFA salts; exchanged for acetates prior to receptor binding studies", "units": {"final HPLC purity": "%", "isolated yield": "%"}, "values": [{"substance": "[D-Trp8,L-Dfp11]-SRIF", "final HPLC purity": 99, "isolated yield": 67}, {"substance": "[L-Dfp6,11,L-Msa7,D-Trp8]-SRIF", "final HPLC purity": 99}, {"substance": "[L-Dfp6,D-Trp8]-SRIF", "final HPLC purity": 99, "isolated yield": 43}, {"substance": "[L-Dfp7,D-Trp8]-SRIF", "final HPLC purity": 99, "isolated yield": 53}]}]}
